Among the data in article PMC12718132 are binding values, retold here.

Results are given in words; binding and its absence hold for the method and conditions named. For some assays here: Binding seen in cells or lysates may run through a third protein. Sequences can lack the tags named with a protein.

Assay [1] concerns the target T1, PTH1R C-terminally tagged with monomeric NeonGreen (PTH1R^mNG) (human), Q03431.
T1 chain: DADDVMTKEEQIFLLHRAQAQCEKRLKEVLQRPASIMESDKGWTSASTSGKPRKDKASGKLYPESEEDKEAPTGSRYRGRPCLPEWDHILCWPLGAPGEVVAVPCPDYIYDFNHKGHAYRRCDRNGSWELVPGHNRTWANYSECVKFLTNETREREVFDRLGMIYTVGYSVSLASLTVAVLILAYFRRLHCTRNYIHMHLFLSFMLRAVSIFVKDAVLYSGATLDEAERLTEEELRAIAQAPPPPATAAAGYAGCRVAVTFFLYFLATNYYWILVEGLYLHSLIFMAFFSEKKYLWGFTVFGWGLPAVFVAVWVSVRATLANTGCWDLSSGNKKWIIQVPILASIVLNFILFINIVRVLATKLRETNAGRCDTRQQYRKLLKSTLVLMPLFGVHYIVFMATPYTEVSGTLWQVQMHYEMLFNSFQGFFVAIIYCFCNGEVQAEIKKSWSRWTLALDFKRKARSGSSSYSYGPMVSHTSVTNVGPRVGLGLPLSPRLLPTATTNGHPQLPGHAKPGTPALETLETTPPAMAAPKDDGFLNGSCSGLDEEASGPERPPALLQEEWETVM
In words: single-molecule TIRF brightness analysis; PTH1R^mNG at ~0.06 detections/um^2 in the plasma membrane of living HEK293 cells; brightness compared with monomeric, dimeric and trimeric mNG controls fused to the PH domain of phospholipase Cdelta1; unliganded and with PTH, PTHrP, LA-PTH, PTH^R25C or PTH^dimer; repeated on a second microscope. Conditions: remark: other sources report otherwise.

Assay [2] addresses T2, PTH1R C-terminally tagged with either YFP (PTHR^YFP) or cyan fluorescent protein (PTHR^CFP) (human), Q03431.
T2 chain: T1 chain
Briefly: FRET or BRET; overexpressed CFP- and YFP-tagged constructs in live cells; FRET efficiency by donor recovery after acceptor bleaching. The following applies: remark: other sources report otherwise.

B1: PTH1R C-terminally tagged with monomeric NeonGreen (PTH1R^mNG), Q03431 27-593 (receptor)
chain: T1 chain
Consider B1, for which the binding entry in assay [1] is “no binding”.

B2: PTH1R C-terminally tagged with either YFP (PTHR^YFP) or cyan fluorescent protein (PTHR^CFP), Q03431 27-593 (receptor)
chain: T1 chain
Turning to B2, the binding entry in assay [2] is reported as “no binding”.
